Results reported in publication PMC5198986.
Results are given in words; binding and its absence hold for the method and conditions named. Some binding calls cover weakened binding; strength is not graded here.

Target: Plasmodium falciparum histone H2B (P. falciparum) (UniProt Q8IIV1)
Assay: SEC; both purified

Plasmodium falciparum histone H2A (from UniProt P40282 1-132)
binding: binds
